This note sets out measurements from PMC7819943, “Rice protein-binding microarrays: a tool to detect cis-acting elements near promoter regions in rice”.

Some of the results follow.

For this test, the target named is T1, OsSMF1 (Oryza sativa, UniProt Q6ZLB0 1-436).
T1 sequence: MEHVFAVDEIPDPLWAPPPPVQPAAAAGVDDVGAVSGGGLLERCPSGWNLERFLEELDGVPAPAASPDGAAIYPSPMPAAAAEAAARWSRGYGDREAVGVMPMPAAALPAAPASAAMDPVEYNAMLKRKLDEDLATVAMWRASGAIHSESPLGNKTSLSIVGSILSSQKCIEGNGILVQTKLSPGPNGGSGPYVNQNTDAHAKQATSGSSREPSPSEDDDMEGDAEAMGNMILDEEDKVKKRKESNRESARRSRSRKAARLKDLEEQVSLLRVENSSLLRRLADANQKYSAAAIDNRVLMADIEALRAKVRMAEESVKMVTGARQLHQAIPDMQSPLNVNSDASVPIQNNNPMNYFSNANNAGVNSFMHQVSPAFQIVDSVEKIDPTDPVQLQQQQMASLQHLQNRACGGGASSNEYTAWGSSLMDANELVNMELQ
The test is described as follows: protein-binding microarray (RPBM); PBS, 2% BSA, 51.3 ng/ul salmon testes DNA, 50 uM zinc acetate, 200 nM TF, 25 C, 1 h; high values mean tight binding. To be noted: protein: recombinant; tags: N-terminal polyhistidine and DsRed monomer fusion (pET32a); chain copies: 2; label: CyDye5-dUTP incorporated in the synthesized complementary strand; 3' TTTTT single-stranded linker to array surface; dsDNA, one strand shown. The essentials: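 In PBS with 2% BSA, salmon testes DNA and 50 µM zinc acetate, 200 nM protein was incubated on a custom Agilent array at 25 °C for 1 h and then washed off. The array had been made double-stranded by primer extension with Cy5-dUTP and blocked with 2% BSA. The proteins were transcription factors fused N-terminally to polyhistidine and DsRed, expressed in E. coli BL21-CodonPlus and purified on Ni–NTA. The binding signal is per-feature fluorescence intensity (arbitrary units) from an Axon 4000B scanner.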
On to “GGTTGAATTCCCGCACGTTTTCCGCCTGGTCGCCACGCGGCGGAGTCACCTAGTGCAG”, for which the binding signal is 4360 fluorescence intensity (a.u.).
Under “ACTGAATTGAGCTGCCAAGCAAGCGTAATTTCGCCCTGATCGGAGTCACCTAGTGCAG” stands 32000 fluorescence intensity (a.u.); under “TACTCGGCGTCCGCCACCGTGGCGGTCATGCCCAAGAACACGGAGTCACCTAGTGCAG”, 7920 fluorescence intensity (a.u.); under “GGTCCTCATGGGTCCACGTAGCCAGTCCCATTTGTAAGTACGGAGTCACCTAGTGCAG”, 3920 fluorescence intensity (a.u.).
Under “CTAGTTCGCTACAGCGAATCGGTGAATAGTAATTCTGAACCGGAGTCACCTAGTGCAG” stands 33700 fluorescence intensity (a.u.); under “TGCTGTGGACGGATGTGGCGAAGGCGAAGGCCTAGGGGTGCGGAGTCACCTAGTGCAG”, 4160 fluorescence intensity (a.u.); under “CACTAGGGTGATGAAGGGTCACTGGGGTCATAAACTCACGCGGAGTCACCTAGTGCAG”, 23700 fluorescence intensity (a.u.).
For the sequence “CTCCTTGCTTGTCATCGCCATTGCCATCGTCATCACAGCACGGAGTCACCTAGTGCAG”, the binding signal is 4820 fluorescence intensity (a.u.).
For the sequence “GCCTCTCGCTGGAGGTGCTCGACGTGTCGAGCAACCTCTTCGGAGTCACCTAGTGCAG”, the binding signal was 4520 fluorescence intensity (a.u.).
As for “AGATGATCTAGGCGTGCGTGCATGCATGCGTGGCCCGCCACGGAGTCACCTAGTGCAG”, the binding signal was 4340 fluorescence intensity (a.u.).
For “AACGTGAACTAAACACATGTCGAAATGCAATCAAAATACCCGGAGTCACCTAGTGCAG”, the binding signal was 42000 fluorescence intensity (a.u.).
For the sequence “AGATCTTCCTCACCGCTAGCCACGCGCGGCATCCACTCCGCGGAGTCACCTAGTGCAG”, the binding signal is 3660 fluorescence intensity (a.u.).
With “AGTAAGCAGCCAGCGCGCGCGCAGCCGCCCACGCACGCAGCGGAGTCACCTAGTGCAG”, the binding signal is 4460 fluorescence intensity (a.u.).
On to “AAACAGAACAGAACACGGGATGGTGTCTTACCTGTATACCCGGAGTCACCTAGTGCAG”, for which the binding signal was 3920 fluorescence intensity (a.u.).
For “AACAAAATAAAACTAAGCCGAGCCACCAGACGTATGGCCTCGGAGTCACCTAGTGCAG”, the binding signal was 36800 fluorescence intensity (a.u.).
As for “ATTACAAATATACTTATGTATAGTTGCCAGCTCAACTGCTCGGAGTCACCTAGTGCAG”, the binding signal is 5610 fluorescence intensity (a.u.).
As for “CTCCTGCTTGTCTCGTTGCGTGGCCGTGGCCTTGTGCGGTCGGAGTCACCTAGTGCAG”, the binding signal was 4860 fluorescence intensity (a.u.).
Turning to “TGCACAATCCGACTGTAAATTACGAGATGAATCTTTTGAGCGGAGTCACCTAGTGCAG”, the binding signal was 25900 fluorescence intensity (a.u.).
Regarding “TCCACCCCTCCTGGAGCTGGAGCTGTGCCAAATAGGCCCTCGGAGTCACCTAGTGCAG”, the binding signal is 3660 fluorescence intensity (a.u.).
Regarding “ATCAACCTGGAAAGATCCCACGCCTAGTCACCATCTATATCGGAGTCACCTAGTGCAG”, the binding signal is 6610 fluorescence intensity (a.u.).
For “CCTCACAGTCCTCCACTCACGCACGTCGTCGCCGTCGCCGCGGAGTCACCTAGTGCAG”, the binding signal is 3830 fluorescence intensity (a.u.).
In the case of “AAATTTCAGTACCATCCACGCCAAAATTAAGGGTGTGTTTCGGAGTCACCTAGTGCAG”, the binding signal is 3970 fluorescence intensity (a.u.).
On to “TTTCTATGGAAGTTTAACTTTGTGCTTAGGTCAGCTTTGTCGGAGTCACCTAGTGCAG”, for which the binding signal is 3610 fluorescence intensity (a.u.).
Under “AAGTGTGTTGGTTGGTGGCATTGTGCTGCGCATGGAGGTTCGGAGTCACCTAGTGCAG” stands 3230 fluorescence intensity (a.u.); under “GTGTTTTGTTAATAGTTGTGTGGTGTATATGGTTGCGTGTCGGAGTCACCTAGTGCAG”, 4880 fluorescence intensity (a.u.); under “GCGGGAACGAGTCCGAATCCGTGTCCCGTGTTCGCGCGCTCGGAGTCACCTAGTGCAG”, 3260 fluorescence intensity (a.u.).
Under “GTACGACGGAACGTGGCACGGTCAGTGTGTGGTTTGTTGCCGGAGTCACCTAGTGCAG” stands 3390 fluorescence intensity (a.u.); under “ACTTTGTTATGACGTGACCAATATATTTAAGTAATTCTGTCGGAGTCACCTAGTGCAG”, 5630 fluorescence intensity (a.u.); under “TGCCAAATGTTGAAACACTTACAGTAGCATCTAATGAAGTCGGAGTCACCTAGTGCAG”, 16000 fluorescence intensity (a.u.).
Under “CGGCGGCGCACAGCCGGCCTTCCACCGCAGCGGAGAGGCCCGGAGTCACCTAGTGCAG” stands 35600 fluorescence intensity (a.u.).
On to “ACCTCCCACGCGCTGCCACGCCGGCGACACGACCACTGCCCGGAGTCACCTAGTGCAG”, for which the binding signal is 8960 fluorescence intensity (a.u.).
Under “TGGGATGAGAGTATGAGACCACGTGTGGCGCCTCCGAGCACGGAGTCACCTAGTGCAG” stands 5090 fluorescence intensity (a.u.).
“TTGAGCCCATTTTACTGACCTGTCTCCCTGGGCTTTGTTGCGGAGTCACCTAGTGCAG”: the binding signal is 3430 fluorescence intensity (a.u.).
As to “TGTATTTCGCCGGTTGCAATTTCGTCATCACTGCGGTTAGCGGAGTCACCTAGTGCAG”, the binding signal was 3500 fluorescence intensity (a.u.).
For “GAATTTGGTCTGTAGTAACAAGTTTTGCCACGCATATTATCGGAGTCACCTAGTGCAG”, the binding signal was 3670 fluorescence intensity (a.u.).
Turning to “ATTCCGCCGTCCGCCATGGATGTCGTCACCGTGGTCTCTACGGAGTCACCTAGTGCAG”, the binding signal was 5410 fluorescence intensity (a.u.).
Under “ATAGATTAATGAATTATATGCCTCGTCATTTGGTGAAATACGGAGTCACCTAGTGCAG” stands 4050 fluorescence intensity (a.u.).
For the sequence “GCCACGCTAGTCCGCTTGGCGTGACAAAGCAACAATGGCACGGAGTCACCTAGTGCAG”, the binding signal is 3350 fluorescence intensity (a.u.).
Under “CGAATTGAAGAATATGCATCCATGTGACACGCTTCTTGAACGGAGTCACCTAGTGCAG” stands 3940 fluorescence intensity (a.u.).
Under “ATTTCGTCTAGATAAAATGAGTTTTACAATTTATCCCTTACGGAGTCACCTAGTGCAG” stands 7930 fluorescence intensity (a.u.).
For “ATCCATGGCCACACGATGCGGTCGGGATCGACGGCGGAGACGGAGTCACCTAGTGCAG”, the binding signal is 3180 fluorescence intensity (a.u.).
Under “CGGCTGCGCTGACGACGACGACCGGCGCCCAGTACAGCTGCGGAGTCACCTAGTGCAG” stands 3190 fluorescence intensity (a.u.); under “TCTTGGACCTTATTTGCACGGTTTTAGGAGTTGAGGGACACGGAGTCACCTAGTGCAG”, 3140 fluorescence intensity (a.u.); under “CTTCTTTCCCGCACGCGCGGCTCGCGCATGCATGCACGATCGGAGTCACCTAGTGCAG”, 15000 fluorescence intensity (a.u.).
Turning to “GACAAGACCAGTTAAAATACATCAGATTAGGCAGTGCTGACGGAGTCACCTAGTGCAG”, the binding signal was 3880 fluorescence intensity (a.u.).
In the case of “TAGGACCAAAACCATAGCCCATGTCAGCCGCATCCGACCCCGGAGTCACCTAGTGCAG”, the binding signal is 3440 fluorescence intensity (a.u.).
On to “CAGCTAATTCCAAGCTTAAAACCTGGCTTAATGCTACTGCCGGAGTCACCTAGTGCAG”, for which the binding signal was 3370 fluorescence intensity (a.u.).
Under “ACTTACCCTTTACTTTCACCCTTGGCTGTCATTCAGGTACCGGAGTCACCTAGTGCAG” stands 3170 fluorescence intensity (a.u.).
With “ACAATAAATAGAAGAGAAGAGCTTCAATCGCAATCGGAATCGGAGTCACCTAGTGCAG”, the binding signal is 26700 fluorescence intensity (a.u.).
With “ACCGCGAGACCGAGGGCTAACGTCACGCCCTCATGCATCCCGGAGTCACCTAGTGCAG”, the binding signal is 3690 fluorescence intensity (a.u.).
Under “ATCAAAAGTGGGGCGGCCCACGTGTCAGTGGCACCAAGTCCGGAGTCACCTAGTGCAG” stands 11400 fluorescence intensity (a.u.); under “CGCTCGCACGGCCTCACCCGACCACCGCCACCGCACAAATCGGAGTCACCTAGTGCAG”, 3860 fluorescence intensity (a.u.); under “GCCATTCCAGTCATTGGCATTGTTGTTTCCTGTCCACTGACGGAGTCACCTAGTGCAG”, 3370 fluorescence intensity (a.u.).
On to “GAGAGAGAGAGAGAGAGGCAGGTGGCGCCGCCGCTGTCCCCGGAGTCACCTAGTGCAG”, for which the binding signal was 3640 fluorescence intensity (a.u.).
